Binding data for one substance are collected here from PMC9951332.

By UniProt entry, the sequences of proteins in these tests, tags left out.
UniProt O95863: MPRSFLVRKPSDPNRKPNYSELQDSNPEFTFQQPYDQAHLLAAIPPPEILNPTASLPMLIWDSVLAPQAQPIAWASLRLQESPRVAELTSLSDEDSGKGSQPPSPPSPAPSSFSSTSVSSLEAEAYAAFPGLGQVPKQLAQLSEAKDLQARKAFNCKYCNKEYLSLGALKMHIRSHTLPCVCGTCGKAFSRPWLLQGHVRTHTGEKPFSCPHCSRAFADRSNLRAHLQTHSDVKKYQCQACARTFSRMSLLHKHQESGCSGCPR

In this experiment the target is T1, CD73 (NT5E, ecto-5-nucleotidase), endogenous (human (endogenous in PANC-1)) (UniProt P21589).
T1 sequence: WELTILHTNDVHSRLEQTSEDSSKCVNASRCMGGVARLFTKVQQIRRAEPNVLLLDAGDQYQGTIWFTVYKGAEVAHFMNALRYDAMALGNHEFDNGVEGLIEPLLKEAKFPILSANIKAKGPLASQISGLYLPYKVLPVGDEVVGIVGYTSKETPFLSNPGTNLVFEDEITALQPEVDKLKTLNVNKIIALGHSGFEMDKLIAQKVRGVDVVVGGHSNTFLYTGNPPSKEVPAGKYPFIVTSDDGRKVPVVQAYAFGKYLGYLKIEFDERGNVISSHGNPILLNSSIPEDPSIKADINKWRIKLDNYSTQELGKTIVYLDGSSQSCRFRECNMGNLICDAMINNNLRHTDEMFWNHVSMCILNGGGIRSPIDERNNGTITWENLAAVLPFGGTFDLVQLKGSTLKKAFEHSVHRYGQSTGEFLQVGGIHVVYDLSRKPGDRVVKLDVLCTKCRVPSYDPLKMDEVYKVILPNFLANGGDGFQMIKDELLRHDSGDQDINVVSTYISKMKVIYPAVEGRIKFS
The experiment in a line: co-IP; co-IP for CD73 and Snail (Figure S6A); cells and antibodies not given.

Results are given in words; binding and its absence hold for the method and conditions named. In cells and extracts the contact can be indirect.

Consider “Snail, endogenous (from UniProt O95863 1-264)”, for which the binding result was “no binding”.
